The source of these data is PubChem BioAssay AID180 (DTP/NCI, 2004).

The list shows only some results of the screen, not a fair sample: it gathers tests that were run many times, whatever their T/C, doses with no T/C, and many T/C values between a quarter and a half above the control. Other doses and runs of a compound stand elsewhere. T/C gives the treated animals as a percentage of the vehicle group. Schedule codes are those of the source, taken here to give the interval after Q, in days (D) or hours (H), and the number of doses after X. Some doses have a count of surviving animals in place of a T/C: the source files T/C as zero there, which appears to mark a toxic dose or a test without result, not a measured value. Survivors were counted at the toxicity check, usually on the fifth day, unless a day is given; later deaths do not show.

In the assay the test system is BDF1 mice, Adenocarcinoma 755 s.c., tumor weight T/C. The experiment in a line: NCI In Vivo Anticancer Drug Screen. Data for tumor model Adenocarcinoma 755 (subcutaneous) in B6D2F1 (BDF1) mice. As to conditions: T/C endpoint: mean tumor weight, higher T/C = larger tumour; for T/C: evaluated on day 12. Put shortly:
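Compound activity was tested in mice carrying transplanted tumors. Survival or tumor size was measured, and each value is the treated-group measurement divided by that of the vehicle-treated control group (T/C).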

Where [1] appears, read: dose: 60.0 mg/kg/injection, schedule: Q01DX011 (ip), vehicle: carboxymethylcellulose (CMC).
[2] abbreviates: dose: 1.0 mg/kg/injection, schedule: Q01DX011 (ip), vehicle: saline.

As to `CN(C)[C@@H]1C(=O)C(C(=O)NCNc2nc(=S)c3[nH]cnc3[nH]2)=C(O)[C@@]2(O)C(=O)C3=C(O)c4c(O)cccc4[C@@](C)(O)[C@H]3C[C@@H]12`, under setting [1], the survivor count was 6 of 10.
Regarding `CCOC(=O)n1cnc2ncnc(SC)c21`, the T/C (dose: 1.0 mg/kg/injection, schedule: Q01DX011 (ip), vehicle: carboxymethylcellulose (CMC)) was 141 % of control. In addition, the survivor count runs as follows: (dose: 300.0 mg/kg/injection, schedule: Q01DX011 (ip), vehicle: carboxymethylcellulose (CMC)) 1 of 10; (dose: 400.0 mg/kg/injection, schedule: Q01DX011 (ip), vehicle: carboxymethylcellulose (CMC)) 0 of 10.
Regarding `C1CN1c1nc(N2CC2)nc(N2CC2)n1`, the survivor count reads like this: (dose: 0.2 mg/kg/injection, schedule: Q01DX011 (ip), vehicle: carboxymethylcellulose (CMC)) 6 of 10; (dose: 0.4 mg/kg/injection, schedule: Q02DX011 (ip), vehicle: carboxymethylcellulose (CMC)) 5 of 10; (dose: 0.75 mg/kg/injection, schedule: Q01DX011 (ip), vehicle: saline) 6 of 10; (dose: 0.8 mg/kg/injection, schedule: Q02DX011 (ip), vehicle: carboxymethylcellulose (CMC)) 0 of 10; under setting [2], 0 of 10; (dose: 625.0 micrograms/kg/injection, schedule: Q01DX011 (ip), vehicle: methylcellulose (MC)) 5 of 10. For the same molecule, the T/C (dose: 75.0 micrograms/kg/injection, schedule: Q01DX011 (ip), vehicle: saline) is 126 % of control.
Regarding `Cc1cnc(SCc2ccc(Cl)cc2Cl)nc1SCc1ccc(Cl)cc1Cl`, the T/C (dose: 15.0 mg/kg/injection, schedule: Q01DX011 (ip), vehicle: methylcellulose (MC)) is 135 % of control.
With `Nc1[nH]c(=S)ncc1NC=O`, under setting [1], the T/C is 131 % of control.
On to `Cn1c(=O)c2[nH]c(N/N=C/c3ccc(F)cc3)nc2n(C)c1=O`, for which, for the setting “dose: 240.0 mg/kg/injection, schedule: Q01DX011 (ip), vehicle: carboxymethylcellulose (CMC)”, the T/C is 141 % of control.
As to `C1CN1P1(N2CC2)=NP(N2CC2)(N2CC2)=NP(N2CC2)(N2CC2)=NP(N2CC2)(N2CC2)=N1`, the survivor count (dose: 24.0 mg/kg/injection, schedule: Q02DX006 (ip), vehicle: carboxymethylcellulose (CMC)) is given as 3 of 10.
Regarding `COC(=O)C1C2CC3c4[nH]c5cc(OC)ccc5c4CCN3CC2CC(OC(=O)c2cc(OC)c(OC)c(OC)c2)C1OC` (stereo unspecified), the T/C by setting is: (dose: 0.25 mg/kg/injection, schedule: Q01DX011 (ip), vehicle: saline) 132 % of control; under setting [2], 129 % of control.
Take `C/C(=N\NC(=O)c1ccncc1)c1cc(Cl)ccc1Cl`: the survivor count (dose: 120.0 mg/kg/injection, schedule: Q01DX011 (ip), vehicle: methylcellulose (MC)) was 1 of 10.
For the molecule `Nc1ncnc2[nH]ncc12`, the T/C (dose: 2.83 mg/kg/injection, schedule: Q01DX011 (ip), vehicle: carboxymethylcellulose (CMC)) is 126 % of control. Moreover, the survivor count is on record as 6 of 10 (dose: 11.3 mg/kg/injection, schedule: Q01DX011 (ip), vehicle: carboxymethylcellulose (CMC)) and 1 of 10 (dose: 12.5 mg/kg/injection, schedule: Q01DX011 (ip), vehicle: carboxymethylcellulose (CMC)).
